Results deposited as PubChem BioAssay AID652243 (Drosophila RNAi Screening Center, 2013).
In all, the deposit lists about 24,000 reagents; below is an unselected part of those that have a named target and a result. In the full data, 246 (1%) were called active. 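Plates not normalised; calls are printed but the firefly/Renilla ratio behind them is not deposited; fold cut for lowering reported inconsistently.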 The raw values are shown without normalisation. The record does not give: the amount of reagent.

- Aim: 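Fly regulators of androgen-dependent reporter output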 (primary screen)
- Cells: Drosophila S2R+ cells
- Reagent: long dsRNA against Drosophila genes
- Time to read-out: 72 h (48 h, then 24 h hormone)
- Challenge: synthetic androgen R1881 at 10 nM for 24 h
- Measurement: 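Firefly light from an androgen-responsive reporter and Renilla control light per well, raw and unnormalised, for each of two replicates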
- Scale: firefly reporter light: higher = more light from androgen-responsive reporter; Renilla control light: higher = more constitutive control signal (cell number, transfection)
- Call rule: 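Hit when the log firefly-to-Renilla ratio dropped or increased by a fixed fold versus the mean of GFP or LacZ controls across duplicate plates; lowering cut given as 1.5 and as 3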
- Meaning of the calls: active = hit: reporter lowered or raised; inactive = no hit

{"Gene": "roh (reduction of Rh1)", "dsRNA": "DRSC04003", "firefly reporter light, replicate 1": 92222, "firefly reporter light, replicate 2": 1.30e5, "Renilla control light, replicate 1": 1.47e5, "Renilla control light, replicate 2": 2.13e5, "Call": "inactive"}
{"Gene": "mRpS9 (mitochondrial ribosomal protein S9)", "dsRNA": "DRSC12645", "firefly reporter light, replicate 1": 4.23e5, "firefly reporter light, replicate 2": 2.70e5, "Renilla control light, replicate 1": 5.39e5, "Renilla control light, replicate 2": 6.02e5, "Call": "inactive"}
{"Gene": "mRpS9 (mitochondrial ribosomal protein S9)", "dsRNA": "DRSC15456", "firefly reporter light, replicate 1": 4.48e5, "firefly reporter light, replicate 2": 6.11e5, "Renilla control light, replicate 1": 3.23e6, "Renilla control light, replicate 2": 3.24e6, "Call": "inactive"}
{"Gene": "CG17047", "dsRNA": "DRSC06648", "firefly reporter light, replicate 1": 3.86e5, "firefly reporter light, replicate 2": 2.37e5, "Renilla control light, replicate 1": 2.24e6, "Renilla control light, replicate 2": 1.70e6, "Call": "inactive"}
{"Gene": "CG34204", "dsRNA": "DRSC38895", "firefly reporter light, replicate 1": 4.60e5, "firefly reporter light, replicate 2": 4.98e5, "Renilla control light, replicate 1": 1.14e6, "Renilla control light, replicate 2": 1.23e6, "Call": "inactive"}
{"Gene": "Fem-1", "dsRNA": "DRSC07322", "firefly reporter light, replicate 1": 78047, "firefly reporter light, replicate 2": 74296, "Renilla control light, replicate 1": 9.68e5, "Renilla control light, replicate 2": 7.28e5, "Call": "inactive"}
{"Gene": "Fem-1", "dsRNA": "DRSC27014", "firefly reporter light, replicate 1": 6.54e5, "firefly reporter light, replicate 2": 4.48e5, "Renilla control light, replicate 1": 7.44e5, "Renilla control light, replicate 2": 3.54e5, "Call": "inactive"}
{"Gene": "CG2816", "dsRNA": "DRSC00539", "firefly reporter light, replicate 1": 1.18e5, "firefly reporter light, replicate 2": 1.18e5, "Renilla control light, replicate 1": 7.48e5, "Renilla control light, replicate 2": 1.04e6, "Call": "inactive"}
{"Gene": "CG2816", "dsRNA": "DRSC24375", "firefly reporter light, replicate 1": 6.07e5, "firefly reporter light, replicate 2": 7.48e5, "Renilla control light, replicate 1": 7.40e5, "Renilla control light, replicate 2": 6.59e5, "Call": "inactive"}
{"Gene": "AOX3 (Aldehyde oxidase 3)", "dsRNA": "DRSC15955", "firefly reporter light, replicate 1": 73887, "firefly reporter light, replicate 2": 1.05e5, "Renilla control light, replicate 1": 5.58e5, "Renilla control light, replicate 2": 6.03e5, "Call": "inactive"}
{"Gene": "scw (screw)", "dsRNA": "DRSC01711", "firefly reporter light, replicate 1": 1.37e5, "firefly reporter light, replicate 2": 1.59e5, "Renilla control light, replicate 1": 5.44e5, "Renilla control light, replicate 2": 6.91e5, "Call": "inactive"}
{"Gene": "scw (screw)", "dsRNA": "DRSC21252", "firefly reporter light, replicate 1": 2.38e5, "firefly reporter light, replicate 2": 1.50e5, "Renilla control light, replicate 1": 7.29e5, "Renilla control light, replicate 2": 3.99e5, "Call": "inactive"}
{"Gene": "eIF2beta (eukaryotic translation initiation factor 2 subunit beta)", "dsRNA": "DRSC11341", "firefly reporter light, replicate 1": 2.60e5, "firefly reporter light, replicate 2": 2.04e5, "Renilla control light, replicate 1": 2.64e6, "Renilla control light, replicate 2": 1.24e6, "Call": "inactive"}
{"Gene": "eIF2beta (eukaryotic translation initiation factor 2 subunit beta)", "dsRNA": "DRSC28025", "firefly reporter light, replicate 1": 6.70e5, "firefly reporter light, replicate 2": 5.61e5, "Renilla control light, replicate 1": 1.84e6, "Renilla control light, replicate 2": 1.38e6, "Call": "inactive"}
{"Gene": "Gycalpha99B (Guanylyl cyclase alpha-subunit at 99B)", "dsRNA": "DRSC16690", "firefly reporter light, replicate 1": 88682, "firefly reporter light, replicate 2": 76176, "Renilla control light, replicate 1": 5.26e5, "Renilla control light, replicate 2": 5.15e5, "Call": "inactive"}
{"Gene": "Gycalpha99B (Guanylyl cyclase alpha-subunit at 99B)", "dsRNA": "DRSC24782", "firefly reporter light, replicate 1": 5.59e5, "firefly reporter light, replicate 2": 4.91e5, "Renilla control light, replicate 1": 5.14e5, "Renilla control light, replicate 2": 5.63e5, "Call": "inactive"}
{"Gene": "mib1 (mind bomb 1)", "dsRNA": "DRSC10550", "firefly reporter light, replicate 1": 2.42e5, "firefly reporter light, replicate 2": 2.06e5, "Renilla control light, replicate 1": 2.16e6, "Renilla control light, replicate 2": 1.80e6, "Call": "inactive"}
{"Gene": "Tim23 (Translocase of inner mitochondrial membrane 23)", "dsRNA": "DRSC21240", "firefly reporter light, replicate 1": 4.95e5, "firefly reporter light, replicate 2": 5.66e5, "Renilla control light, replicate 1": 4.10e6, "Renilla control light, replicate 2": 4.00e6, "Call": "inactive"}
{"Gene": "CG13708", "dsRNA": "DRSC08317", "firefly reporter light, replicate 1": 1.89e5, "firefly reporter light, replicate 2": 2.77e5, "Renilla control light, replicate 1": 2.31e6, "Renilla control light, replicate 2": 2.59e6, "Call": "inactive"}
{"Gene": "CG33703", "dsRNA": "DRSC37834", "firefly reporter light, replicate 1": 5.33e5, "firefly reporter light, replicate 2": 5.56e5, "Renilla control light, replicate 1": 1.46e6, "Renilla control light, replicate 2": 1.47e6, "Call": "inactive"}
{"Gene": "CG18605", "dsRNA": "DRSC06772", "firefly reporter light, replicate 1": 1.21e5, "firefly reporter light, replicate 2": 1.65e5, "Renilla control light, replicate 1": 1.85e6, "Renilla control light, replicate 2": 1.83e6, "Call": "inactive"}
{"Gene": "CG18605", "dsRNA": "DRSC26583", "firefly reporter light, replicate 1": 2.58e5, "firefly reporter light, replicate 2": 2.16e5, "Renilla control light, replicate 1": 6.14e5, "Renilla control light, replicate 2": 6.43e5, "Call": "inactive"}
